Here are results for two molecules from article PMC8347620, “Arabidopsis G-Protein β Subunit AGB1 Negatively Regulates DNA Binding of MYB62, a Suppressor in the Gibberellin Pathway”.

For experiment [1], the target named is T1, G protein β subunit AGB1, yeast two-hybrid fusion (BD-AGB1) (Arabidopsis thaliana) (UniProt P49177).
T1 sequence: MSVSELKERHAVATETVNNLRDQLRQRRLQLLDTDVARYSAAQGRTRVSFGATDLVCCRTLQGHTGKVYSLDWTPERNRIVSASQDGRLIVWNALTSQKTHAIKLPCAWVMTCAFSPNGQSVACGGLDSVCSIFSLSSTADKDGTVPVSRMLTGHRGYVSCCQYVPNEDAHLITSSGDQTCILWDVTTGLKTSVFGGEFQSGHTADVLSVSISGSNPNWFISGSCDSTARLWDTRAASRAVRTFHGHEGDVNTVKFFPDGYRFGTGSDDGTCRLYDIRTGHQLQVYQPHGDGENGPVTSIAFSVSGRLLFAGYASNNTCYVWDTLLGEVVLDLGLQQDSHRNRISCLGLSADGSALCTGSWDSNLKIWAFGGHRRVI
The experiment can be described thus: two-hybrid; yeast two-hybrid; growth on SD/-Leu/-Trp/-His/-Ade with or without 40 μg/mL X-α-gal; empty AD and BD vectors as negative controls.

Experiment [2] concerns the target T2, GST-AGB1 fusion protein (Arabidopsis thaliana) (UniProt P49177).
T2 sequence: T1 sequence
The experiment in a line: pull-down; GST pull-down: GST-AGB1 and maltose-eluted MBP-MYB62 incubated about 8 h at 4 °C in 40 mM HEPES, 10 mM KCl, 0.4 M sucrose, 3 mM MgCl2, 1 mM EDTA, 1 mM DTT; washed 5 times with 1× PBS pH 7.4; Western blot with MBP-tag and GST-tag antibodies; both purified. (A western blot detects proteins with antibodies after separation by electrophoresis.)

Results are given in words; binding and its absence hold for the method and conditions named. Some results given as binding are weak or reduced against the parent protein; the word gives no strength. Tags and fused reporters may be left off the sequences shown.

B1: Transcription factor MYB62, yeast two-hybrid fusion (AD-MYB62) (protein, UniProt Q9C9G7 1-286)
chain: MENSMKKKKSFKESEDEELRRGPWTLEEDTLLTNYILHNGEGRWNHVAKCAGLKRTGKSCRLRWLNYLKPDIRRGNLTPQEQLLILELHSKWGNRWSKIAQYLPGRTDNEIKNYWRTRVQKQARQLNIESNSDKFFDAVRSFWVPRLIEKMEQNSSTTTTYCCPQNNNNNSLLLPSQSHDSLSMQKDIDYSGFSNIDGSSSTSTCMSHLTTVPHFMDQSNTNIIDGSMCFHEGNVQEFGGYVPGMEDYMVNSDISMECHVADGYSAYEDVTQDPMWNVDDIWQFRE
Regarding B1, in experiment [1], the binding entry is reported as “binds”.

B2: MBP-MYB62 fusion protein (protein, UniProt Q9C9G7 1-286)
chain: B1 chain
For the molecule B2, in experiment [2], the binding result was “binds”.
